No constants are given. Whether binding was seen depends on the method and setting. Some binding calls cover weakened binding; strength is not graded here.
B1: peptide number 7 (peptide, not shown: large carriers)
chain: GPFKRCHERLVAFARCWFMWSMVLRSAEIYES
notes: that construct is not described for linear peptides
B2: peptide number 69 (peptide, not shown: large carriers)
chain: GPFPFDYPRWIMIVLLRGVLRSAEIYES
notes: as for B1
B3: peptide number 77 (peptide, not shown: large carriers)
chain: GPFSEHARGHVVTICRLRLLFWLLRSAEIYES
notes: as for B1
B4: peptide number 54 (peptide, not shown: large carriers)
chain: GPWWKDRGVLVRLCVLRLVVGVVLRSAEIYES
notes: Mammalian two-hybrid construct not described for linear peptides
B5: peptide number 16 (peptide, not shown: large carriers)
chain: GPHSSAHDRIWLRVRGLRIILLVLRSAEIYES
notes: as for B1
B6: peptide number 5 (peptide, not shown: large carriers)
chain: GSRFRVFVCSLFSFLSGRGGGVVVLRSAEIYES
notes: as for B1
B7: peptide number 90 (peptide, not shown: large carriers)
chain: GPYPYLRILLVQKIACVRRALWVLRSAEIYES
notes: as for B1
B8: peptide number 75 (peptide, not shown: large carriers)
chain: GSRCIRRRISILFFVFRVLRSRRVLRSAEIYES
notes: as for B1
B9: peptide number 65 (peptide, not shown: large carriers)
chain: GAGLGRVIRLRIVVLRCIFLLFRVLRSAEIYES
notes: as for B1

What follows are binders tested against livin (UniProt P04386) (assay: yeast two-hybrid, linear peptide on Gal4 activation domain).

binding | Binder
binds | GPLLDPMLRQRFSLRVWIMLLGVLRSAEIYES (peptide, not shown: large carriers) [SEQ ID NO 64]
binds | GRLGWLRLLCVRIVLVCLRRGLVLRSAEIYES (peptide, not shown: large carriers) [SEQ ID NO 60]
binds | GPQPFCSPPSFYTRLLIIVRLLSLDLQRSSNRRY (peptide, not shown: large carriers) [SEQ ID NO 47]
binds | B1
binds | GPLHRTLLVDMCCWLMSLESNMGP (peptide, not shown: large carriers) [SEQ ID NO 55]
binds | B2
binds | GPAPLSLCVCKCGCGHTRPFVGP (peptide, not shown: large carriers) [SEQ ID NO 48]
binds | GPVGVEGVDSVFGWCVVCFLLVWSLDLQRSSNRRY (peptide, not shown: large carriers) [SEQ ID NO 85]
binds | GPVYSEAFVCLVCAGVCVEECGGSLDLQRSSNRRY (peptide, not shown: large carriers) [SEQ ID NO 53]
binds | GPNSWVWRYVTIAHWLANYRMSGP (peptide, not shown: large carriers) [SEQ ID NO 65]
binds | EFGSGLVSGRGIIVRRMLFLRVLLWVLRSAEIYES (peptide, not shown: large carriers) [SEQ ID NO 39]
binds | EFRVRRMRLLVRLMGSDDSGTIPDFGP (peptide, not shown: large carriers) [SEQ ID NO 45]
binds | GPLPSGAVSTEAYFWEVFKLLMGP (peptide, not shown: large carriers) [SEQ ID NO 83]
binds | GPSNDNQLVLRVRILRVLIVMRVLRSAEIYES (peptide, not shown: large carriers) [SEQ ID NO 44]
binds | B3
binds | EFRVRVLGCMGVFLRLRFCGGLRLRVLRSAEIYES (peptide, not shown: large carriers) [SEQ ID NO 86]
binds | GPSLQFLEVVVSCYMVLYDLSKGP (peptide, not shown: large carriers) [SEQ ID NO 46]
binds | B4
binds | GPVECADVLFASRIRLLCLCFRVLRSAEIYES (peptide, not shown: large carriers) [SEQ ID NO 73]
binds | B5
binds | EFGSGWYVDLGDYSVWVDYVYCGSGSLDLQRSSNRRY (peptide, not shown: large carriers) [SEQ ID NO 61]
binds | B6
binds | GPSSLLRRCLILGMVLGVLRRRVLRSAEIYES (peptide, not shown: large carriers) [SEQ ID NO 81]

binding | Binder
binds | B7
binds | GPESYVLWPARGEALYYLRAWLGP (peptide, not shown: large carriers) [SEQ ID NO 78]
binds | GPVPSSPCSFLLYCRDVLCHWPGP (peptide, not shown: large carriers) [SEQ ID NO 68]
binds | GPIDCIIFLLWYSRQQRGGSRGGP (peptide, not shown: large carriers) [SEQ ID NO 41]
binds | EFGSGLCVRRWWGMSVGSRIMLVMLVLRSAEIYES (peptide, not shown: large carriers) [SEQ ID NO 52]
binds | GPHPVLAVQLINAYLGLERVGRGP (peptide, not shown: large carriers) [SEQ ID NO 82]
binds | GSRGLRLCLLGRCRLCGCLIIMRVLRSAEIYES (peptide, not shown: large carriers) [SEQ ID NO 77]
binds | EFGRRLLVFRLSVFVVVLGRRLSRVLRSAEIYES (peptide, not shown: large carriers) [SEQ ID NO 74]
binds | GSGFRMRVLVMVCRLRVVFLVRRVLRSAEIYES (peptide, not shown: large carriers) [SEQ ID NO 59]
binds | EFGVRMRLMIRIFRGLFVLRGFRGLVLRSAEIYES (peptide, not shown: large carriers) [SEQ ID NO 67]
binds | EFGVRVVCVVRSLFVLRCGLLRCRGVLRSAEIYES (peptide, not shown: large carriers) [SEQ ID NO 56]
binds | GPFENWRVEELARGRYRMHGDVVLRSAEIYES (peptide, not shown: large carriers) [SEQ ID NO 40]
binds | EFRVRIIVVSLRIWRLLVRRRCLCLVLRSAEIYES (peptide, not shown: large carriers) [SEQ ID NO 72]
binds | EFGVRLLVLLRLRCVRRGGGCFVCWVLRSAEIYES (peptide, not shown: large carriers) [SEQ ID NO 58]
binds | GPSQCAQRVALIQMYIDALVCIGP (peptide, not shown: large carriers) [SEQ ID NO 62]
binds | B8
binds | GPIETVGFIVRLHTLLMVLRRTGP (peptide, not shown: large carriers) [SEQ ID NO 54]
binds | EFGSGCGCFVRGRIVRIRCVILLLRVLRSAEIYES (peptide, not shown: large carriers) [SEQ ID NO 50]
binds | B9
binds | GPCEPFIGDCWPCLIRTLVTLRGLDL (peptide, not shown: large carriers) [SEQ ID NO 69]
binds | GPAMKSCTIRVFRVCIVLRIVRVLRSAEIYES (peptide, not shown: large carriers) [SEQ ID NO 66]
binds | EFVRECSLCRVMVLMFVLRGIRLRVLRSAEIYES (peptide, not shown: large carriers) [SEQ ID NO 57]
binds | GPDVHIWQSIIFYAMRHMMGP (peptide, not shown: large carriers) [SEQ ID NO 49]

Each binder was assayed against livin (UniProt P04386) (assay: yeast two-hybrid, peptide in trxA scaffold).

binding | Binder
binds | LLAWRVQQSRPLPYLHIAFI (peptide, not shown: large carriers) [SEQ ID NO 23]
binds | DSAPGERYFVDFLGVSFACVWSVQNDRPDSG (peptide, not shown: large carriers) [SEQ ID NO 15]
binds | KPWEYLRMFPWMRVARFFIW (peptide, not shown: large carriers) [SEQ ID NO 37]
binds | CWIHRAWMLSWHGVWSLTLV (peptide, not shown: large carriers) [SEQ ID NO 25]
binds | HSRPALCMVSLRWARSLWIV (peptide, not shown: large carriers) [SEQ ID NO 19]
binds | RATYWFRSRYQVVHRSRLPYGPLIVVGIGALNLELNRTLLCS (peptide, not shown: large carriers) [SEQ ID NO 30]
binds | MMDSA (peptide, not shown: large carriers) [SEQ ID NO 11]
binds | MPIPPLCRSAGRLLYLYTHY (peptide, not shown: large carriers) [SEQ ID NO 34]
binds | WLGTFSGTCSTAFYFPLGVP (peptide, not shown: large carriers) [SEQ ID NO 1]
binds | ACWALWSLFRQDLLLVITFD (peptide, not shown: large carriers) [SEQ ID NO 14]
binds | PPPLTGRWSRQCVSVFGIVH (peptide, not shown: large carriers) [SEQ ID NO 24]
binds | APPISGRWRGLYMRSRFVSL (peptide, not shown: large carriers) [SEQ ID NO 26]
binds | IPWAPPMYFADSNV (peptide, not shown: large carriers) [SEQ ID NO 16]
binds | ASLRLYPIGGTVPFGRTGAG (peptide, not shown: large carriers) [SEQ ID NO 12]
binds | LAGRHFSRVVDRIRYRLLWT (peptide, not shown: large carriers) [SEQ ID NO 33]
binds | VRLFIVCIIICCLMLLVG (peptide, not shown: large carriers) [SEQ ID NO 27]
binds | MYSNVSVDVAADGVSCVCCSWSVQNDRPDSG (peptide, not shown: large carriers) [SEQ ID NO 3]
